Results deposited as PubChem BioAssay AID504793 (Drosophila RNAi Screening Center, 2011).

- Aim: 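Whole-genome screen for parts of the DNA damage checkpoint at G2/M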 (primary screen)
- Cell system: Drosophila S2R+ cells
- Reagent: long dsRNA against Drosophila genes, about 0.25 µg dsRNA per well
- Duration: 4 days of dsRNA, then 4 hours of drug before read-out
- Challenge: doxorubicin 0.5 µM for 4 hours to cause double-strand breaks, in cells also given a low, harmless dose of dsRNA against nbs to sensitise the assay
- Measurement: 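Mitotic index as the number of phospho-histone H3-positive cells in each well following doxorubicin, given as raw counts without normalisation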
- Direction: mitotic cells: higher = more cells in mitosis, weaker G2 arrest
- Hit rule: 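Genes are called active only when high mitotic counts were reproduced with independent dsRNAs and mitosis was checked for delay without damage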
- Meaning of the calls: active = confirmed in follow-up tests; inactive = not confirmed
The deposit covers about 23,000 reagents; shown is an unselected part of those that have a named target and a result. Over the whole deposit, 62 (0.27%) are marked active. 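Calls come from follow-up tests whose scores are not deposited, so confirmed genes may have low counts here; counts are not normalised per plate.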 The raw values are shown without normalisation. Unmarked entries are inactive. A plus sign joins genes that one reagent is predicted to hit.

{"predicted target": "tst (GeneID 42813)", "dsRNA": "DRSC14212", "mitotic cells, replicate 1": 5}
{"predicted target": "Lsp1alpha (GeneID 32199)", "dsRNA": "DRSC20258", "mitotic cells, replicate 1": 10}
{"predicted target": "Lsp1alpha (GeneID 32199)", "dsRNA": "DRSC25329", "mitotic cells, replicate 1": 3}
{"predicted target": "Nipped-B (GeneID 3355136)", "dsRNA": "DRSC07815", "mitotic cells, replicate 1": 9}
{"predicted target": "Nipped-B (GeneID 3355136)", "dsRNA": "DRSC29151", "mitotic cells, replicate 1": 7}
{"predicted target": "CG31082 (retired record) (GeneID 318587)", "dsRNA": "DRSC13775", "mitotic cells, replicate 1": 12}
{"predicted target": "CG31082 (retired record) (GeneID 318587)", "dsRNA": "DRSC28134", "mitotic cells, replicate 1": 5}
{"predicted target": "Dyrk2 (GeneID 34831)", "dsRNA": "DRSC03610", "mitotic cells, replicate 1": 7}
{"predicted target": "Dyrk2 (GeneID 34831)", "dsRNA": "DRSC29029", "mitotic cells, replicate 1": 9}
{"predicted target": "TpnC73F (GeneID 39916)", "dsRNA": "DRSC11307", "mitotic cells, replicate 1": 3}
{"predicted target": "GNBP1 (GeneID 40034)", "dsRNA": "DRSC11169", "mitotic cells, replicate 1": 4}
{"predicted target": "GNBP1 (GeneID 40034)", "dsRNA": "DRSC21836", "mitotic cells, replicate 1": 14}
{"predicted target": "CG4074 (GeneID 40290)", "dsRNA": "DRSC11752", "mitotic cells, replicate 1": 2}
{"predicted target": "CG4074 (GeneID 40290)", "dsRNA": "DRSC29915", "mitotic cells, replicate 1": 4}
{"predicted target": "CG7377 (GeneID 2768978)", "dsRNA": "DRSC10830", "mitotic cells, replicate 1": 6}
{"predicted target": "pen-2 (GeneID 251430)", "dsRNA": "DRSC05722", "mitotic cells, replicate 1": 5}
{"predicted target": "CG14454 (GeneID 40482)", "dsRNA": "DRSC11711", "mitotic cells, replicate 1": 3}
{"predicted target": "CG14454 (GeneID 40482)", "dsRNA": "DRSC23866", "mitotic cells, replicate 1": 4}
{"predicted target": "Hmgcl (GeneID 33978)", "dsRNA": "DRSC02051", "mitotic cells, replicate 1": 5}
{"predicted target": "ari-1 (GeneID 32796)", "dsRNA": "DRSC20308", "mitotic cells, replicate 1": 12}
{"predicted target": "ari-1 (GeneID 32796)", "dsRNA": "DRSC21603", "mitotic cells, replicate 1": 9}
{"predicted target": "ari-1 (GeneID 32796)", "dsRNA": "DRSC27556", "mitotic cells, replicate 1": 4}
{"predicted target": "hzg (GeneID 39748)", "dsRNA": "DRSC23382", "mitotic cells, replicate 1": 5}
{"predicted target": "CG12826 (GeneID 35710)", "dsRNA": "DRSC06175", "mitotic cells, replicate 1": 3}
{"predicted target": "hpRNA:CR33940 (GeneID 3771790)", "dsRNA": "DRSC39118", "mitotic cells, replicate 1": 7}
{"predicted target": "grn (GeneID 40962)", "dsRNA": "DRSC16961", "mitotic cells, replicate 1": 8}
{"predicted target": "grn (GeneID 40962)", "dsRNA": "DRSC25829", "mitotic cells, replicate 1": 3}
{"predicted target": "CG42486 + CG14933", "dsRNA": "DRSC26454", "mitotic cells, replicate 1": 8}

Laid out differently: results already given
ari-1 (GeneID 32796) [DRSC27556]
- mitotic cells, replicate 1: 4

hzg (GeneID 39748) [DRSC23382]
- mitotic cells, replicate 1: 5

CG12826 (GeneID 35710) [DRSC06175]
- mitotic cells, replicate 1: 3

hpRNA:CR33940 (GeneID 3771790) [DRSC39118]
- mitotic cells, replicate 1: 7

Next results:
{"predicted target": "CG5757 (GeneID 37062)", "dsRNA": "DRSC06951", "mitotic cells, replicate 1": 2}
{"predicted target": "CG3626 (GeneID 31377)", "dsRNA": "DRSC18318", "mitotic cells, replicate 1": 9}
{"predicted target": "CG3626 (GeneID 31377)", "dsRNA": "DRSC26443", "mitotic cells, replicate 1": 14}
{"predicted target": "CG3829 (GeneID 38000)", "dsRNA": "DRSC04423", "mitotic cells, replicate 1": 10}
{"predicted target": "CG2247 (GeneID 32111)", "dsRNA": "DRSC19844", "mitotic cells, replicate 1": 8}
{"predicted target": "CG4707 (GeneID 37935)", "dsRNA": "DRSC04483", "mitotic cells, replicate 1": 6}
{"predicted target": "CG15784 (GeneID 31461)", "dsRNA": "DRSC18090", "mitotic cells, replicate 1": 10}
{"predicted target": "CG15784 (GeneID 31461)", "dsRNA": "DRSC25383", "mitotic cells, replicate 1": 9}
{"predicted target": "sip1 (GeneID 44238)", "dsRNA": "DRSC03609", "mitotic cells, replicate 1": 4}
{"predicted target": "sip1 (GeneID 44238)", "dsRNA": "DRSC22648", "mitotic cells, replicate 1": 4}
{"predicted target": "sip1 (GeneID 44238)", "dsRNA": "DRSC27781", "mitotic cells, replicate 1": 2}
{"predicted target": "CG9609 (GeneID 32663)", "dsRNA": "DRSC20199", "mitotic cells, replicate 1": 3}
{"predicted target": "CG9609 (GeneID 32663)", "dsRNA": "DRSC26952", "mitotic cells, replicate 1": 5}
{"predicted target": "Cyp6a15Psi (GeneID 3772535)", "dsRNA": "DRSC07377", "mitotic cells, replicate 1": 4}
{"predicted target": "Cyp6a15Psi (GeneID 3772535)", "dsRNA": "DRSC28316", "mitotic cells, replicate 1": 3}
